Literature values in patent US20020151599A1, “FORMULATIONS HAVING AN ANTIVIRAL ACTION” (priority 1999, published 2002).
For at least one compound, name, drawing or mass did not settle the structure.

Tests used:
[1] = test system: herpes simplex viruses of type I; settings: tissue cultures cultivated in the presence of the substance; cited from earlier work
[2] = test system: herpes simplex viruses; settings: compounds of the same aglycone compared; quercetin active only in very high doses, if at all; cited from earlier work

Row | SMILES | rate of infection by herpes simplex viruses of type I [1] | antiviral effects [2]
1 | C[C@@H]1O[C@@H](Oc2c(-c3ccc(O)c(O)c3)oc3cc(O)cc(O)c3c2=O)[C@H](O)[C@H](O)[C@H]1O [quercitrin] | not influenced | –
2 | O=c1c(O[C@@H]2O[C@H](CO)[C@@H](O)[C@H](O)[C@H]2O)c(-c2ccc(O)c(O)c2)oc2cc(O)cc(O)c12 [isoquercitrin] | – | unequivocally detected
